In article PMC8011160:
Results are given in words; binding and its absence hold for the method and conditions named. A result given as binding can be weak or reduced; the word gives no strength.

The chains behind the UniProt entries cited, without tags or fusion partners. Residues count along the entry.
UniProt P04985, residues 27-747: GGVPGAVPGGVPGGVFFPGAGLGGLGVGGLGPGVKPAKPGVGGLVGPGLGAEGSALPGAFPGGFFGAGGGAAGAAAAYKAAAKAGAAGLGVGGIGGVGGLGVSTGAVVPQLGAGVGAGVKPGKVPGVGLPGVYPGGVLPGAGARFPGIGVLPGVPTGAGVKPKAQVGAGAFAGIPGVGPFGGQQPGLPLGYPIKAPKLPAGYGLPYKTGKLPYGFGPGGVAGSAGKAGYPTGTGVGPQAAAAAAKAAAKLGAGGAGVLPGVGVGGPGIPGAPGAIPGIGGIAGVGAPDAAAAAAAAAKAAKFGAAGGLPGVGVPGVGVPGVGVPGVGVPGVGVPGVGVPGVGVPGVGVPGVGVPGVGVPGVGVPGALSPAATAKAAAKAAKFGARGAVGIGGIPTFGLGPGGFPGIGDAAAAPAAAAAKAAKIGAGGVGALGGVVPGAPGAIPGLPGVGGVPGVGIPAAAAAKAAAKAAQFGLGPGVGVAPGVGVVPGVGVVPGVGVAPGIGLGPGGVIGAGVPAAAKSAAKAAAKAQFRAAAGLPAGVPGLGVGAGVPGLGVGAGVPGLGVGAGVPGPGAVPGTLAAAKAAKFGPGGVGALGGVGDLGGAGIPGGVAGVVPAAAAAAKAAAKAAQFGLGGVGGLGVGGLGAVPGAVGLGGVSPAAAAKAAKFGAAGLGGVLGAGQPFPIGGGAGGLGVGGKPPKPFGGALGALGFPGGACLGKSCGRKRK

Experiments:
[1] = target: elastin (purified from bovine neck ligament) (bovine) (UniProt P04985); assay: co-sedimentation; 0.5, 1, 5 and 10 mg insoluble elastin mixed with 40 μg protein in 400 μl PBS, 60 min at 4 °C; centrifuged 20 min at 18,000 x g; supernatant (unbound) and washed pellet (bound) on 12% SDS-PAGE; both purified
[2] = target: elastin (purified from bovine neck ligament) (bovine) (UniProt P04985); assay: ELISA; host protein coated on microtiter wells (1 μg in PBS pH 7.4, overnight at 4 °C), blocked with 1% BSA; 1 μM recombinant protein, 2 h at 37 °C; detected with mouse antisera to the recombinant proteins; absorbance with BSA subtracted; both purified

truncated form of leptospiral immunoglobulin-like protein B (LigBC, amino acids 631-1156) (from UniProt Q72V39) (domain or fragment)
binding [1]: binds | binding [2]: binds
